The target of this assay is T1, Galectin-13 (wild type) (human), Q9UHV8.
T1 chain: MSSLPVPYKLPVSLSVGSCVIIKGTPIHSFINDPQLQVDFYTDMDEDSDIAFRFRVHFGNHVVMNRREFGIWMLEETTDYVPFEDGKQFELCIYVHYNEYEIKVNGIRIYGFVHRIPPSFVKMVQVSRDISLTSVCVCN
The experiment in a line: crystal structure; Gal-13 crystals from 0.1 M Tris-HCl pH 8.5, 0.05 M lactose, 0.2 M MgCl2, 30% PEG 4000, room temperature; one molecule in the asymmetric unit, homodimer with twofold symmetry; both purified. Conditions: remark: other sources report otherwise.

Results are given in words; binding and its absence hold for the method and conditions named. Some entries that bind do so weakly or less than the wild type.

B1: Galectin-13 (wild type), Q9UHV8 1-139 (natural protein)
chain: MSSLPVPYKLPVSLSVGSCVIIKGTPIHSFINDPQLQVDFYTDMDEDSDIAFRFRVHFGNHVVMNRREFGIWMLEETTDYVPFEDGKQFELCIYVHYNEYEIKVNGIRIYGFVHRIPPSFVKMVQVSRDISLTSVCVCN
modifications: here or on the partner: intermolecular disulfide bonds Cys136-Cys138' and Cys138-Cys136' in the dimer; intermolecular disulfide bonds Cys136-Cys138' and Cys138-Cys136' in the dimer
Take B1: the binding entry is “binds”.

The record behind these values is PMC5772480, “Galectin-13, a different prototype galectin, does not bind β-galacto-sides and forms dimers via intermolecular disulfide bridges between Cys-136 and Cys-138” (Scientific Reports, 2018).
